Values joined by “and” are separate entries in the source; they are usually repeats but may differ in a detail not shown here. Equal values may be shown once. The shares of active, inactive and inconclusive entries below differ from those in the screen. Potencies beside an inconclusive call are fits to weak or partial responses and may not hold up. The source holds several records for some structures; these can differ, active in one and inactive in another. Active and inactive are the calls of the source. Unless noted, calls follow the shape of the full dose curve.
Test system: not listed separately
Assay: cAMP Responsive Elements (CRE) small molecule antagonists, cell-based qHTS assay (AID 1963591; active = well fitted inhibition curve with a large enough effect in the signal ratio in the repeat runs, not every such curve was filed as active; inconclusive = weak or mixed curves, or effect the other way; the % refers to the signal ratio)
Details: CRE-bla HEK293T, beta-lactamase FRET ratio; activity change, negative = inhibition: at 92.4 µM (top of the series) unless noted
Outline: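 Inhibition of NKH477-driven (0.25 uM final) CRE-beta-lactamase signal in HEK293T cells, 3 h compound exposure at 37 °C, detected by FRET substrate fluorescence.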
% is scaled to controls: 0 for no effect and ±100 for the full control effect; potency is read from the fitted curve at half-maximal effect.

Structure (SMILES) | Potency | activity change, negative = inhibition
C=CC[C@]1(O)CC[C@H]2[C@@H]3CCC4=CC(=O)CCC4=C3C=C[C@@]21C | inconclusive: 26.6 µM [fluorescent, partial curve, poor fit] | 
Cc1cc(Cl)ccc1OCC(=O)O |  | inconclusive: 1.66%
ClC(Cl)C(Cl)Cl | inactive | 
ClC(Cl)(Cl)c1ccccc1 |  | inconclusive: -11.4%
CC(C)[C@H](C(=O)O[C@H](C#N)c1cccc(Oc2ccccc2)c1)c1ccc(Cl)cc1 |  | inconclusive: -7.23%
CCCCC(CC)COC(=O)OOC(C)(C)C (stereo unspecified) | inactive | 
N#C/C=C/C#N |  | inconclusive: 29.1%
CCOP(=O)(OCC)O/C(=C/Cl)c1ccc(Cl)cc1Cl | inconclusive: 24.3 µM [activator] | 
CN(C)c1ccc(N=O)cc1 | inconclusive: 68.8 µM and inconclusive: 25.4 µM [activator, single point] | 
CCOP(=S)(OCC)Oc1cnc2ccccc2n1 |  | inconclusive: 19%
ClCCOCCCl | inactive | 
O=C(O)CCCOc1ccc(Cl)cc1Cl | inconclusive: 34.4 µM [activator, partial curve] and inconclusive: 4.45 µM [fluorescent, full curve, poor fit] | 
O=C(Nc1ccc2[nH]ccc2c1)c1cc2cc(F)ccc2n1Cc1cccc(F)c1 | active: 61.1 µM | 
CC(=O)/C=C/c1ccc2c(c1)OCO2 | inconclusive: 30.8 µM [fluorescent] | 

Target: Beta-2 adrenergic receptor (Homo sapiens) (UniProt P07550)
Assay: Adrenergic beta2 receptor (ADRB2) small molecule antagonists, cell-based qHTS assay (AID 1963592); also: nearly all actives have a fitted effect of over 50% in size
Details: CHO-ADRB2 cells, isoproterenol-stimulated cAMP HTRF ratio, 0.5 h; activity change, negative = inhibition: at 92.4 µM (top of the series) unless noted
Outline: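 Cells (CHO, stable ADRB2 overexpression) incubated 18-20hr at 37C; compounds added from DMSO; agonist mix (1nM isoproterenol, 100uM IBMX, 25uM Ro-20-1724) added; 0.5hr RT; d2-cAMP and anti-cAMP-cryptate added; 1hr RT; 665/615 nm read.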

Structure (SMILES) | Potency | activity change, negative = inhibition
CCCCC(CC)COC(=O)OOC(C)(C)C (stereo unspecified) | inactive | 
CN(C)c1ccc(N=O)cc1 | inconclusive: 30.7 µM [partial curve] | inconclusive: -12.6%
CCOP(=S)(OCC)Oc1cnc2ccccc2n1 |  | inconclusive: 7.45%
Cn1cc(-c2ccccc2)c(=O)c(-c2cccc(C(F)(F)F)c2)c1 | active: 29.9 µM | 
CCOP(=S)(OCC)Oc1ccc2c(C)c(Cl)c(=O)oc2c1 |  | inconclusive: -11.5% and inconclusive: -10.8%
Cc1ccc(OP(=O)(Oc2ccc(C)cc2)Oc2ccc(C)cc2)cc1 | inconclusive: 68.5 µM [inhibitor, single point] | 
CC(=O)/C=C/c1ccc2c(c1)OCO2 |  | inconclusive: 2.23%

Target: Beta-2 adrenergic receptor (Homo sapiens) (UniProt P07550)
Assay: Adrenergic beta2 receptor (ADRB2) small molecule agonists, cell-based qHTS assay (AID 1963593);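 as to activation: CHO cells stably overexpressing human ADRB2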
Details: CHO-ADRB2 cells, cAMP HTRF, 30 min; activation: at 92.4 µM (top of the series) unless noted
Outline: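 CHO cells stably over-expressing ADRB2 were plated overnight at 37C, then dosed with compounds plus a stimulation mix containing 100uM IBMX and 25uM Ro-20-1724 for 0.5hr at room temperature. cAMP was measured by HTRF competition, 1hr.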

Structure (SMILES) | activation | Potency
CN(C)[C@@H]1C(=O)C(C(N)=O)=C(O)[C@@]2(O)C(=O)C3=C(O)c4c(O)cccc4[C@@](C)(O)[C@H]3C[C@@H]12 | inconclusive: -5.1% | 
C=CC[C@]1(O)CC[C@H]2[C@@H]3CCC4=CC(=O)CCC4=C3C=C[C@@]21C | inconclusive: -45.3% [at 42.5 µM] | 
C=CCC1(C(C)CC)C(=O)NC(=O)NC1=O (stereo unspecified) |  | inactive
CN1CC[C@]23c4c5ccc(O)c4O[C@H]2[C@@H](O)CC[C@H]3[C@H]1C5 |  | inactive
CC1N=C(N)OC1c1ccccc1 (stereo unspecified) |  | inactive
O=[N+]([O-])c1ccccc1O |  | inconclusive: 0.193 µM [inhibitor, full curve, poor fit]
O=C1OC(c2ccc(O)c(S(=O)(=O)O)c2)(c2ccc(O)c(S(=O)(=O)O)c2)c2c(Br)c(Br)c(Br)c(Br)c21 |  | inconclusive: 0.106 µM [inhibitor, partial curve, poor fit]
Cc1cc(Cl)ccc1OCC(=O)O |  | inactive and inconclusive: 68.6 µM [inhibitor, single point]
C[C@H]1O[C@H](OC2[C@@H](O)[C@@H](O)C(O)[C@H](O)[C@H]2O)[C@@H](N)C[C@@H]1N=C(N)C(=O)O (stereo partly specified) | inconclusive: 7.41% | 
CC(C)(O)C(Cl)(Cl)Cl |  | inconclusive: 1.19 µM [inhibitor, single point]
CCCCCCCCn1sccc1=O |  | inconclusive: 2.74 µM [inhibitor] and inconclusive: 71.9 µM [inhibitor]
N#Cc1ccc(N(CC(N)=O)CC(F)(F)F)cc1C(F)(F)F | inconclusive: -23.2% | 
O=P(OCCCl)(OCCCl)OCCCl | inconclusive: -21.3% | 
ClC(Cl)(Cl)c1ccccc1 | inconclusive: 36.3% | 
CC(C)c1ccc(OP(=O)(Oc2ccc(C(C)C)cc2)Oc2ccc(C(C)C)cc2)cc1 | inconclusive: -7.81% | inconclusive: 69.1 µM [inhibitor, single point] and inconclusive: 24.3 µM [inhibitor]
COc1ccc(-c2ccccc2)cc1NNC(=O)OC(C)C |  | inactive
OCCCCO |  | inconclusive: 13.7 µM [inhibitor, partial curve, poor fit]
CC(C)[C@H](C(=O)O[C@H](C#N)c1cccc(Oc2ccccc2)c1)c1ccc(Cl)cc1 |  | inactive

Structure (SMILES) | activation | Potency
N#C/C=C/C#N |  | inconclusive: 64 µM [inhibitor, partial curve, poor fit]
CCSC(=O)N1CCCCCC1 | inconclusive: 0.961% | 
O=C(O)C1C(C(=O)O)C2(Cl)C(Cl)=C(Cl)C1(Cl)C2(Cl)Cl (stereo unspecified) | inconclusive: -11% | 
CN(C)c1ccc(N=O)cc1 | inconclusive: 13.6% and inconclusive: -1.08% | 
COP(N)(=O)SC (stereo unspecified) |  | inconclusive: 1.7 nM [inhibitor, full curve, poor fit] and inactive
C=CC(=O)OC | inconclusive: 32.8% | 
Cn1cc(-c2ccccc2)c(=O)c(-c2cccc(C(F)(F)F)c2)c1 | inconclusive: -13.7% | inconclusive: 66.9 µM [inhibitor, partial curve, poor fit]
CCOP(=S)(OCC)Oc1ccc2c(C)c(Cl)c(=O)oc2c1 | inconclusive: 3.16% | inconclusive: 61.8 µM [partial curve] and inconclusive: 29.8 µM [inhibitor, single point]
ClCCOCCCl | inconclusive: 22.6% | 
CCN(CC)N=O | inconclusive: 35.3% | inconclusive: 0.244 µM [inhibitor, single point]
Cc1ccc(OP(=O)(Oc2ccc(C)cc2)Oc2ccc(C)cc2)cc1 |  | inconclusive: 21.6 µM [inhibitor]
O=C(O)CCCOc1ccc(Cl)cc1Cl |  | inactive and inconclusive: 111 µM [inhibitor, partial curve, poor fit]
O=C(Nc1ccc2[nH]ccc2c1)c1cc2cc(F)ccc2n1Cc1cccc(F)c1 |  | inactive
CNC(=O)O/N=C(\C)SC |  | inactive
CCN[C@@H](C)Cc1ccccc1 |  | inactive
CC(C)N(Cc1ccccc1)C(=O)C(C)(C)C |  | inconclusive: 6.86 µM [inhibitor, single point]
CC(=O)/C=C/c1ccc2c(c1)OCO2 | inconclusive: -8.53% | 

5 compounds drawn at random from the list so far, as already listed:
Structure (SMILES) | activation | Potency
CN(C)c1ccc(N=O)cc1 | inconclusive: 13.6% and inconclusive: -1.08% | 
Cn1cc(-c2ccccc2)c(=O)c(-c2cccc(C(F)(F)F)c2)c1 | inconclusive: -13.7% | inconclusive: 66.9 µM [inhibitor, partial curve, poor fit]
CCN[C@@H](C)Cc1ccccc1 |  | inactive
CCOP(=S)(OCC)Oc1ccc2c(C)c(Cl)c(=O)oc2c1 | inconclusive: 3.16% | inconclusive: 61.8 µM [partial curve] and inconclusive: 29.8 µM [inhibitor, single point]
CC(C)N(Cc1ccccc1)C(=O)C(C)(C)C |  | inconclusive: 6.86 µM [inhibitor, single point]
